Measured values as given in PMC7766232 (Molecules, 2020).
Strings that start with PEPTIDE1 are HELM notation: dots part the residues, brackets hold end groups and non-standard residues.

Assay: general procedure: hybrid (solid and solution phase) peptide synthesis; 2-chlorotritylchloride resin (100-200 mesh, 1% DVB; loading 1.51 mmol/g); TBTU/DIPEA; HATU/DIPEA for beta-ACPC and for macrocyclization
Conditions: whole synthesis; for final HPLC purity / isolated yield: scale of the general procedure 0.190 mmol (8, 9), 0.095 mmol (10); for isolated yield: overall, on resin loading

In the case of “PEPTIDE1{[isoAsp].G.R.[ACPC_1R2S].V}$PEPTIDE1,PEPTIDE1,1:R1-5:R2$$$V2.0”, the isolated mass is reported as 9.97 mg, the “final HPLC purity” value is reported as “HPLC purity > 99%” and the isolated yield is reported as 16% overall yield.

In the case of “PEPTIDE1{R.G.D.[ACPC_1S2R].V}$PEPTIDE1,PEPTIDE1,1:R1-5:R2$$$V2.0”, the isolated mass is reported as 13 mg, the “final HPLC purity” value is reported as “HPLC purity = 96%” and the isolated yield is reported as “overall yield 10%”.

With “PEPTIDE1{R.G.D.[ACPC_1R2S].V}$PEPTIDE1,PEPTIDE1,1:R1-5:R2$$$V2.0” the isolated mass was 11 mg, the “final HPLC purity” value was “HPLC purity = 99%” and the isolated yield was “overall yield 9%”.
